# No constants are given. Whether binding was seen depends on the method and setting. Binding seen in cells or lysates may run through a third protein.
# Target: Thioredoxin (control) [thioredoxin: P0AA25]
# Test: pull-down; thioredoxin-SGTA fusion proteins or thioredoxin covalently coupled to UltraLink Biosupport beads, incubated with rabbit reticulocyte lysate for 16 hours at 4°C; washed in 40mM HEPES-KOH pH 7.5, 40mM potassium acetate, 5mM MgCl2; Western blot; only the target purified
binder,measurement,value
"UBL4A (ubiquitin-like protein 4A) of rabbit reticulocyte lysate (protein, UniProt B7NZQ9 1-157) MQLTVKALQGRECNLQVPEDEQVSTLKQLVSEKLNVPVRQQRLLFKGKALADGKRLSDYSIGPNSKLNLVVKPLEKVLLAEGTARRLADSPPPPVWHLISKVLARHFSAADASRVLEQLQRDYERSLSRLTLDDIERLASRFLHPEGTEAMEKGLSK",binding,no binding
